In ChEMBL document CHEMBL2069265, “Synthesis and biological evaluation of optically active conjugated γ- and δ-lactone derivatives” (2012):

How the values were obtained:
Pseudomonas aeruginosa = experiment: Antibacterial activity against Pseudomonas aeruginosa ATCC 9027 at 50 mg/ml after 24 hrs by disc diffusion method; format: functional, organism-based
Candida albicans = experiment: Antifungal activity against Candida albicans ATCC 10231 at 10 mg/ml after 24 hrs by disc diffusion method; format: functional, organism-based

Sequence | inhibition zone (IZ) (Pseudomonas aeruginosa) [mm] | inhibition zone (IZ) (Candida albicans) [mm]
GENTAMICIN | 22 | 
NYSTATIN |  | 20
